Assay results as given in PubChem BioAssay AID2551 (National Center for Advancing Translational Sciences (NCATS), 2010).
Hit rate of the full screen: of about 310,000 compounds, about 17,000 (5.5%) were called active. The inconclusive results got no clear call from the source; some entries with a clear call stand among them for comparison. Calls come from the whole dose curve; as a rule, active = well fitted inhibition curve with a large enough effect; inconclusive = small, poorly fitted or top-dose-only effect, or effect the other way; inactive = no such curve, though single readings can be large or run the other way. Potencies beside an inconclusive call are fits to weak or partial responses and may not hold up.

Sequences of proteins named here, by UniProt entry; tags and fusion partners are left off. A change or cut given only in a name is not applied to a line headed by its entry.
UniProt P51450: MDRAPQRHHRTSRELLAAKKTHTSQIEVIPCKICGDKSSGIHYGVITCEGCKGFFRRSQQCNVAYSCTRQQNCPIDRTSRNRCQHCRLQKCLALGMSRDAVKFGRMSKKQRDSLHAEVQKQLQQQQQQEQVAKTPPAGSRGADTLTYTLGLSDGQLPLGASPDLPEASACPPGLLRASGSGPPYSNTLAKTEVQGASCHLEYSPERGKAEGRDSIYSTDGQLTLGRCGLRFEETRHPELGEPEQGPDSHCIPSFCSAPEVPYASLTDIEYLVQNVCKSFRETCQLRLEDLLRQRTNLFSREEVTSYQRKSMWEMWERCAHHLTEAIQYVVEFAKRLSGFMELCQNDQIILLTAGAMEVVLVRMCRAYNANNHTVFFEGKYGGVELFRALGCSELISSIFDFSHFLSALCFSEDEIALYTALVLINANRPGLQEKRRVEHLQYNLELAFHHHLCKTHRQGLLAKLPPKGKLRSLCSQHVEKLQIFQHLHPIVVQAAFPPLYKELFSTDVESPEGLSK

Each molecule was assayed against Nuclear receptor ROR-gamma (Mus musculus) (UniProt P51450) (assay: qHTS for inhibitors of ROR gamma transcriptional activity). Conditions: Drosophila S2 Gal4-RORgamma UAS-luciferase reporter, 20 h; activity change, negative = inhibition: at 53.6 µM (top of the series).
In short: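 Luminescence from a UAS-regulated Photinus luciferase reporter in stably transfected Drosophila Schneider cells is measured; decreased signal marks ROR gamma inhibition. Fusion expression is induced by 700 uM copper sulfate for 20 hr.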
% is set by controls: 0 for no effect and ±100 for the full control effect; potency is the fitted concentration of half-maximal effect.
Note: nearly all actives have a fitted effect of over 60% in size.

| SMILES | Potency | activity change, negative = inhibition |
| --- | --- | --- |
| CC1CCN(CCn2c(=S)[nH]c3ccccc3c2=O)CC1 | inconclusive: 25.1 µM [inhibitor, single point] |  |
| CCn1c(-c2cc(-c3cc(OC)ccc3OC)nc3ccccc23)n[nH]c1=S | active: 8.91 µM |  |
| COc1ccc(C(=O)NCc2nnc(SCC(=O)N3CCc4ccccc43)n2CCc2ccccc2)cc1 | inconclusive: 14.1 µM [activator, partial curve, poor fit] |  |
| Cc1ccc(NC(=O)C(SCC(=O)O)c2ccccc2)cc1C (stereo not given) | inconclusive: 5.62 µM [activator, single point] |  |
| CC(=O)c1ccc(N2CCN(C(=O)Nc3ccc(Cl)cc3)CC2)cc1 |  | inactive: 22.5% |
| CC(=O)O[C@@H]1[C@@]2(C)O[C@H]2CC[C@]23O[C@H]2[C@H](OC3=O)C2=C(C)C(=O)O[C@@]21O | inconclusive: 31.6 µM [inhibitor, single point] |  |
| CC1=CC2=NC(=O)/C(=C\c3cccn3CCOc3cc(C)cc(C)c3)C(=N)N2O1 | inconclusive: 25.1 µM [inhibitor, single point] |  |
| CCOc1cccc(-c2nnc3n2N=C(c2cc(OC)ccc2OC)CS3)c1 | inconclusive: 2.82 µM [activator, full curve] |  |
| NC(=O)CSc1nc(N)c2c3c(sc2n1)CCCCC3 | inconclusive: 7.08 µM [activator, full curve] |  |
| Fc1ccc(CNC(=S)NC2CCCCC2)cc1 | active: 5.01 µM |  |
| Cc1c(C(c2ccc(O)cc2)c2c(C)n(C)n(-c3ccccc3)c2=O)c(=O)n(-c2ccccc2)n1C | inconclusive: 35.5 µM [activator, single point] |  |
| COc1ccc(NC(=S)NC2CC3CCC2C3)c(OC)c1 (stereo not given) | active: 5.01 µM |  |
| C/C(=N\NC(=O)c1ccccn1)c1ccc(Cl)cc1 | inconclusive: 12.6 µM [inhibitor, single point] |  |
| O=C(NNC(=O)C1COc2ccccc2O1)c1ccccc1 (stereo not given) | inconclusive: 35.5 µM [inhibitor, single point] |  |
| O=c1[nH]c2ccccc2cc1CN(Cc1cccnc1)S(=O)(=O)c1ccc(Cl)cc1 |  | inactive: 32.3% |
| CC1(C)Cc2nc3oc4c(N5CCOCC5)ncnc4c3cc2CO1 |  | inactive: -6.68% |
| Cc1ccc(C2(CCNCc3ccc(N(C)C)cc3)CCOC(C(C)C)C2)cc1 (stereo not given) | inconclusive: 15.8 µM [inhibitor, single point] |  |
| CN(C)CCNc1ccc(-c2nn(C)c(=O)c3ccccc23)cc1[N+](=O)[O-] |  | inactive: -13.6% |
| O=C(CS(=O)(=O)Cc1ccccc1)Nc1ccc(Cl)cn1 | inconclusive: 17.8 µM [activator, single point] |  |
| O=[N+]([O-])c1ccccc1S(=O)(=O)N1CCN(c2ccccc2)CC1 | inconclusive: 0.631 µM [inhibitor, full curve] |  |
| COc1ccc(/C=N/NC(=O)c2ccc(Cl)cc2)cc1Cn1cc(Cl)cn1 | inconclusive: 35.5 µM [inhibitor, single point] |  |
| Cc1ccc(C(=O)N/N=C\c2ccc(-c3ccc(Cl)c(Cl)c3)o2)cn1 | inconclusive: 15.8 µM [inhibitor, single point] |  |
| O=C(O)CSc1nnc(CNc2cccc(C(F)(F)F)c2)n1Cc1ccco1 |  | inactive: -18.6% |
| CCOC(=O)Nc1nnc(-c2ccc(OC)cc2)s1 |  | inactive: 0.795% |

| SMILES | Potency | activity change, negative = inhibition |
| --- | --- | --- |
| CCc1cc2c(=O)[nH]c(-c3ccccn3)nc2s1 | inconclusive: 35.5 µM [inhibitor, single point] |  |
| Cc1cc(C(=O)N/N=C/c2ccc(-c3ccc(C)c(Cl)c3)o2)n[nH]1 | inconclusive: 7.94 µM [inhibitor, partial curve] |  |
| CC(=O)c1c(C)[nH]c(-c2ccccc2)nc1=S | active: 3.16 µM |  |
| Cc1nc2ccc(S(=O)(=O)N(C)CC(=O)N3CCc4ccccc4C3)cc2s1 | inconclusive: 5.62 µM [inhibitor, full curve, poor fit] |  |
| Cc1ccc(CCN=c2c([N+](=O)[O-])nn(-c3ccccc3)n2O)cc1 |  | inactive: 16.8% |
| CCN1CCN(C(c2ccc(C(F)(F)F)cc2)c2ccc3cccnc3c2O)CC1 (stereo not given) | active: 1.12 µM |  |
| CCNC(=S)N(CCc1c(C)[nH]c2ccc(C)cc12)Cc1cc(OC)c(OC)c(OC)c1 | inconclusive: 12.6 µM [activator, single point] |  |
| CCn1nccc1C(=O)Nc1cc(Cl)cc(Cl)c1 | inconclusive: 35.5 µM [activator, single point] |  |
| O=C(c1ccc2c(c1)OCO2)N1CCOCC1 | inconclusive: 6.31 µM [inhibitor, single point] |  |
| CCN(CC)S(=O)(=O)c1cccc(NC(=O)c2ccc(Br)cc2)c1 | inconclusive: 7.94 µM [activator, partial curve] |  |
| COc1ccc(NC(=O)CCC(=O)N/N=C/c2cn(C)nc2C)cc1 |  | inactive: 14.8% |
| C=CCNC(=O)c1onc(CSc2ccccc2F)c1C(=O)O | inconclusive: 28.2 µM [inhibitor, single point] |  |
| O=C(NC(=S)NCc1ccccc1)c1cccs1 | active: 5.01 µM |  |
| CCCCN(C)S(=O)(=O)c1cc(Br)cc2c1N(C(=O)C1CC1)CC2 | inconclusive: 14.1 µM [inhibitor, single point] |  |
| O=C(c1ccc(Cn2c(=O)[nH]c3ccccc3c2=O)cc1)N1CCN(c2ccc(F)cc2)CC1 | inconclusive: 20 µM [activator, single point] |  |
| Cc1ccc(C(=O)Nc2ncc3c(Cl)cccc3n2)cc1 | active: 3.16 µM |  |
| O=C(NCCCN1CCOCC1)c1ccc(Cl)cc1Cl | inconclusive: 1.78 µM [inhibitor, partial curve] |  |
| CCOC(=O)CC(=O)CSC1=C(C#N)C(c2ccccc2OC)CC(=O)N1 (stereo not given) | inconclusive: 0.282 µM [inhibitor, full curve, poor fit] |  |
| COc1ccc(NC(=S)Nc2ccc(C)c(S(=O)(=O)N3CCCCC3)c2)cc1 | inconclusive: 25.1 µM [inhibitor, single point] |  |
| CC(C)Cn1c(N)c(C(=O)COC(=O)c2cc(F)cc(F)c2)c(=O)n(C)c1=O | inconclusive: 35.5 µM [activator, single point] |  |
| COc1ccc(-c2noc(N(C)CC(=O)Nc3cccc(C(F)(F)F)c3)n2)cc1 | inconclusive: 10 µM [activator, partial curve] |  |
| CCOc1ccc(NC(=S)NC(C)CCc2ccccc2)cc1 (stereo not given) | active: 2.51 µM |  |
| CC1(C)Cc2c(sc(N)c2C#N)C(C)(C)N1 |  | inactive: -1.62% |
| O=[N+]([O-])c1cccc(S(=O)(=O)NC2CC3CCC2C3)c1 (stereo not given) |  | inactive: 0.325% |

Among those listed so far, these have an aryl methoxy group.

| SMILES | Potency | activity change, negative = inhibition |
| --- | --- | --- |
| CCn1c(-c2cc(-c3cc(OC)ccc3OC)nc3ccccc23)n[nH]c1=S | active: 8.91 µM |  |
| COc1ccc(C(=O)NCc2nnc(SCC(=O)N3CCc4ccccc43)n2CCc2ccccc2)cc1 | inconclusive: 14.1 µM [activator, partial curve, poor fit] |  |
| CCOc1cccc(-c2nnc3n2N=C(c2cc(OC)ccc2OC)CS3)c1 | inconclusive: 2.82 µM [activator, full curve] |  |
| COc1ccc(NC(=S)NC2CC3CCC2C3)c(OC)c1 (stereo not given) | active: 5.01 µM |  |
| COc1ccc(/C=N/NC(=O)c2ccc(Cl)cc2)cc1Cn1cc(Cl)cn1 | inconclusive: 35.5 µM [inhibitor, single point] |  |
| CCOC(=O)Nc1nnc(-c2ccc(OC)cc2)s1 |  | inactive: 0.795% |
| CCNC(=S)N(CCc1c(C)[nH]c2ccc(C)cc12)Cc1cc(OC)c(OC)c(OC)c1 | inconclusive: 12.6 µM [activator, single point] |  |
| COc1ccc(NC(=O)CCC(=O)N/N=C/c2cn(C)nc2C)cc1 |  | inactive: 14.8% |
| CCOC(=O)CC(=O)CSC1=C(C#N)C(c2ccccc2OC)CC(=O)N1 (stereo not given) | inconclusive: 0.282 µM [inhibitor, full curve, poor fit] |  |
| COc1ccc(NC(=S)Nc2ccc(C)c(S(=O)(=O)N3CCCCC3)c2)cc1 | inconclusive: 25.1 µM [inhibitor, single point] |  |
| COc1ccc(-c2noc(N(C)CC(=O)Nc3cccc(C(F)(F)F)c3)n2)cc1 | inconclusive: 10 µM [activator, partial curve] |  |

In another format: 2 of the compounds above
Cc1ccc(CCN=c2c([N+](=O)[O-])nn(-c3ccccc3)n2O)cc1
  activity change, negative = inhibition: inactive: 16.8%
O=C(NCCCN1CCOCC1)c1ccc(Cl)cc1Cl
  Potency: inconclusive: 1.78 µM [inhibitor, partial curve]

(listing goes on)

| SMILES | Potency | activity change, negative = inhibition |
| --- | --- | --- |
| O=C(CCCn1c(=O)oc2ccccc21)N1CCc2ccccc2C1 |  | inactive: 20.8% |
| Cc1c(/C(O)=C2/C(=O)C(=O)N(CCN3CCOCC3)C2c2ccccn2)cnn1-c1ccccc1 (stereo not given) | active: 1.12 µM |  |
| CCOC(=O)c1ccc(NC(=O)c2nc[nH]c2C(=O)NCCCCCNC(=O)OC(C)(C)C)cc1 | active: 11.2 µM |  |
| CN(C)c1ccc(/C=N\NC(=O)c2ccc(Cn3cc(Cl)cn3)cc2)cc1 | inconclusive: 35.5 µM [inhibitor, single point] |  |
| Cc1cc(C(=O)N/N=C/c2ccc(-c3cccc(Br)c3)o2)n[nH]1 | inconclusive: 35.5 µM [inhibitor, single point] |  |
| COc1ccc(CCNc2oc(COc3ccccc3Cl)nc2C#N)cc1OC | inconclusive: 14.1 µM [activator, partial curve] |  |
| COc1cc(C(c2c(C)[nH][nH]c2=O)c2c(C)[nH][nH]c2=O)cc([N+](=O)[O-])c1O | inconclusive: 25.1 µM [inhibitor, single point] |  |
| Cc1ccccc1NC(=S)NC(=O)c1cc(-c2ccccc2)nc2ccccc12 | active: 1.78 µM |  |
| COc1cc(NC(=O)Cn2nc(C(F)(F)F)c(Br)c2C)cc([N+](=O)[O-])c1 | inconclusive: 35.5 µM [inhibitor, single point] |  |
| Cc1ccc(-c2nn(-c3ccccc3)cc2C=O)o1 | inconclusive: 35.5 µM [inhibitor, single point] |  |
| Cc1cc(/C=C\c2ccccc2)nc2ccccc12 | active: 11.2 µM |  |
| COc1cccc(NC(=O)Nc2cccn(Cc3ccc(C)cc3)c2=O)c1 | inconclusive: 25.1 µM [activator, single point] |  |
| O=C(Cc1ccccc1)Nc1ccc(Br)c(Cl)c1 | inconclusive: 7.08 µM [activator, full curve, poor fit] |  |
| NNC(=S)Nc1cc(S(=O)(=O)N2CCOCC2)ccc1N1CCOCC1 | inconclusive: 22.4 µM [inhibitor, single point] |  |
| O=C(/C=C/c1ccc(Cl)c(Cl)c1)NCc1ccco1 | inconclusive: 20 µM [activator, single point] |  |
| O=c1c(-c2cccs2)nc2cnc(N3CCNCC3)nc2n1CCc1ccccc1 | inconclusive: 1 µM [inhibitor, partial curve] |  |
| CCc1cccc(CC)c1NC(=S)/C(=C(\[O-])c1ccc(Cl)s1)[n+]1ccccc1 | inconclusive: 14.1 µM [inhibitor, single point] |  |
| O=Cc1ccc(-c2cccc([N+](=O)[O-])c2)o1 |  | inactive: 27.2% |
| COc1cc(C(=O)Nc2cc(-c3cn4cccnc4n3)ccc2C)cc(OC)c1OC | inconclusive: 15.8 µM [inhibitor, single point] |  |
| COC(=O)c1ccc(-c2ccc(C3C4C=CCC(C)C4C(=O)N3Cc3ccccc3)c(F)c2)cc1 (stereo not given) |  | inactive: 31% |
| CC(C)=C1C2C=CC1C(C(=O)Nc1cccc(C)c1)C2C(=O)O (stereo not given) | inconclusive: 3.16 µM [activator, single point] |  |
| CC1CCC(C(C)C)C(OC(=O)Cn2c(-c3ccccc3)[n+](C)c3ccccc32)C1 (stereo not given) | inconclusive: 7.94 µM [inhibitor, single point] |  |
